Results are given in words; binding and its absence hold for the method and conditions named. Some binding calls cover weakened binding; strength is not graded here.
Target: T1, lymphotoxin beta receptor (LT-β-R) (human, UniProt P36941 31-435)
T1 construct: whole, on cells; also called LT-β receptor
Experiment: FACS of LT-β-R-expressing HT-29 cells, conditioned medium

Amino acid sequences for entries named in this document (tags omitted). Residues count along the entry.
UniProt P36941, residues 31-435: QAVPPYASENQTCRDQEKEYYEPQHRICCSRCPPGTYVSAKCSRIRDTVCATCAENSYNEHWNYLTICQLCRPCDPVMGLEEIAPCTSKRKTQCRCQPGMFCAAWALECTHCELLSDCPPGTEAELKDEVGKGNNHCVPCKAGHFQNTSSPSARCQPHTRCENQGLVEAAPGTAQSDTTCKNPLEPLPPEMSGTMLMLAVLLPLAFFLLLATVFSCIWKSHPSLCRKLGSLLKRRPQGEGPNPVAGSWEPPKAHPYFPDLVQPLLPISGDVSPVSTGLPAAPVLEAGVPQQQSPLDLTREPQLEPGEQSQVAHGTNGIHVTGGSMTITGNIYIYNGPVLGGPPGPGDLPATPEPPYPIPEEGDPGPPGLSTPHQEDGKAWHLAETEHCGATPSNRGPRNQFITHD

B1: chimeric CBE11 (chCBE11) (antibody, V domains shown)
VH: EVQLVESGGGLVKPGGSLKLSCAASGFTFSDYYMYWFRQTPEKRLEWVATISDGGSYTYYPDSVKGRFTISRDNAKNNLYLQMSSLKSEDTAMYYCVREENGNFYYFDYWGQGTTVTVSS
VL: DIKMTQSPSSMYASLGERVTITCKAGQDIKSYLSWYQQKPWKSPKILIYYATRLADGVPSRFSGSGSGQDYSLTISSLESDDTATYYCLQHGESPWTFGGGTKLEIK
notes: the latter is followed; also called pEAG982/pEAG983
- binding: binds

Reference: patent US20040058394A1 (Biogen, published 2004)
